Measurements: ChEMBL document CHEMBL5674883, “The Heterochromatin Landscape in Migrating Cells and the Importance of H3K27me3 for Associated Transcriptome Alterations” (Cells, 2018)
The source gives many values for each of these; only a part stands here.

Chains of the proteins cited; added tags and fusions are not shown.
UniProt Q61188, whole entry: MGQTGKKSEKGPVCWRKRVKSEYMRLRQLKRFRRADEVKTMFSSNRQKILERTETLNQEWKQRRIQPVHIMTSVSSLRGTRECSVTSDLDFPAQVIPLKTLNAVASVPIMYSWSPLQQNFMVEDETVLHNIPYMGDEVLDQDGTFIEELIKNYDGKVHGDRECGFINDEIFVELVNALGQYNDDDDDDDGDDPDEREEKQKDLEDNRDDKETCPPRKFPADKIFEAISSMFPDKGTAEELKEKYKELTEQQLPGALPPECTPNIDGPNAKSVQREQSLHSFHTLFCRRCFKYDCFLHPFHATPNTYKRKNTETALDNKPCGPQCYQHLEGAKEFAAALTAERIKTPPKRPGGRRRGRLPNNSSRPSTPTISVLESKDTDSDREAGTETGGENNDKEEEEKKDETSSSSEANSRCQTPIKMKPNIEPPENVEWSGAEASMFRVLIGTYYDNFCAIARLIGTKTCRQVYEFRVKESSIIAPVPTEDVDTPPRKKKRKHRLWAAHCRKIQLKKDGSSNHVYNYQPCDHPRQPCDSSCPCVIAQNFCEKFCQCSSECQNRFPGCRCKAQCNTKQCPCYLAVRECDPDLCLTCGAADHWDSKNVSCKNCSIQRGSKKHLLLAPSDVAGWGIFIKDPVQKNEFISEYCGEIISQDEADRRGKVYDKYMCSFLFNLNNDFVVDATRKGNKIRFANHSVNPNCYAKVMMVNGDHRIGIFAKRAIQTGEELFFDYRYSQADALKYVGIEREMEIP

What was measured:
Type in all cases: cell-based
[1] = target: T1, RNA polymerase II (Mus musculus) (UniProt P08775+Q8CFI7+P97760+A0A3Q4L2S8+Q80UW8+P61219+P62488+Q923G2+P60898+O08740+Q63871+P62876); test: Inhibition of RNA polymerase II in mouse B16-F1 migrating cells assessed as fold change in Abhd17a-RNA stability at 0.1 mM measured by ChIP-seq analysis relative to control cells
[2] = target: T1, RNA polymerase II (Mus musculus); test: Inhibition of RNA polymerase II in mouse B16-F1 migrating cells assessed as fold change in Chm-RNA stability at 0.1 mM measured by ChIP-seq analysis relative to control cells
[3] = target: T1, RNA polymerase II (Mus musculus); test: Inhibition of RNA polymerase II in mouse B16-F1 migrating cells assessed as fold change in Rasd2-RNA stability at 0.1 mM measured by ChIP-seq analysis relative to control cells
[4] = target: T1, RNA polymerase II (Mus musculus); test: Inhibition of RNA polymerase II in mouse B16-F1 migrating cells assessed as fold change in Dyrk1a-RNA stability at 0.1 mM measured by ChIP-seq analysis relative to control cells
[5] = target: T1, RNA polymerase II (Mus musculus); test: Inhibition of RNA polymerase II in mouse B16-F1 migrating cells assessed as fold change in Renbp-RNA stability at 0.1 mM measured by ChIP-seq analysis relative to control cells
[6] = target: T1, RNA polymerase II (Mus musculus); test: Inhibition of RNA polymerase II in mouse B16-F1 migrating cells assessed as fold change in Cracr2b-RNA stability at 0.1 mM measured by ChIP-seq analysis relative to control cells
[7] = target: T1, RNA polymerase II (Mus musculus); test: Inhibition of RNA polymerase II in mouse B16-F1 migrating cells assessed as fold change in Vat1-RNA stability at 0.1 mM measured by ChIP-seq analysis relative to control cells
[8] = target: T1, RNA polymerase II (Mus musculus); test: Inhibition of RNA polymerase II in mouse B16-F1 migrating cells assessed as fold change in Rplp0-RNA stability at 0.1 mM measured by ChIP-seq analysis relative to control cells
[9] = target: T1, RNA polymerase II (Mus musculus); test: Inhibition of RNA polymerase II in mouse B16-F1 migrating cells assessed as fold change in Klhl42-RNA stability at 0.1 mM measured by ChIP-seq analysis relative to control cells
[10] = target: T1, RNA polymerase II (Mus musculus); test: Inhibition of RNA polymerase II in mouse B16-F1 migrating cells assessed as fold change in Casc4-RNA stability at 0.1 mM measured by ChIP-seq analysis relative to control cells
[11] = target: T1, RNA polymerase II (Mus musculus); test: Inhibition of RNA polymerase II in mouse B16-F1 migrating cells assessed as fold change in Ssna1-RNA stability at 0.1 mM measured by ChIP-seq analysis relative to control cells
[12] = target: T1, RNA polymerase II (Mus musculus); test: Inhibition of RNA polymerase II in mouse B16-F1 migrating cells assessed as fold change in Psmc6-RNA stability at 0.1 mM measured by ChIP-seq analysis relative to control cells
[13] = target: T1, RNA polymerase II (Mus musculus); test: Inhibition of RNA polymerase II in mouse B16-F1 migrating cells assessed as fold change in Ttc14-RNA stability at 0.1 mM measured by ChIP-seq analysis relative to control cells
[14] = target: T1, RNA polymerase II (Mus musculus); test: Inhibition of RNA polymerase II in mouse B16-F1 migrating cells assessed as fold change in Atp5d-RNA stability at 0.1 mM measured by ChIP-seq analysis relative to control cells
[15] = target: Histone-lysine N-methyltransferase EZH2 (Mus musculus) (UniProt Q61188); test: Inhibition of EZH2 in mouse B16-F1 migrating cells assessed as fold change in H3K27me3-buffered regulated Eif4a2-mRNA expression at 3 uM measured by ChIP-seq analysis relative to control cells
[16] = target: Histone-lysine N-methyltransferase EZH2 (Mus musculus) (UniProt Q61188); test: Inhibition of EZH2 in mouse B16-F1 migrating cells assessed as fold change in H3K27me3-buffered regulated BC037034-mRNA expression at 3 uM measured by ChIP-seq analysis relative to control cells
[17] = target: Histone-lysine N-methyltransferase EZH2 (Mus musculus) (UniProt Q61188); test: Inhibition of EZH2 in mouse B16-F1 migrating cells assessed as fold change in H3K27me3-buffered regulated Cdc14a-mRNA expression at 3 uM measured by ChIP-seq analysis relative to control cells
[18] = target: Histone-lysine N-methyltransferase EZH2 (Mus musculus) (UniProt Q61188); test: Inhibition of EZH2 in mouse B16-F1 migrating cells assessed as fold change in H3K27me3-buffered regulated Col1a2-mRNA expression at 3 uM measured by ChIP-seq analysis relative to control cells
[19] = target: Histone-lysine N-methyltransferase EZH2 (Mus musculus) (UniProt Q61188); test: Inhibition of EZH2 in mouse B16-F1 migrating cells assessed as fold change in H3K27me3-buffered regulated Gas1-mRNA expression at 3 uM measured by ChIP-seq analysis relative to control cells
[20] = target: Histone-lysine N-methyltransferase EZH2 (Mus musculus) (UniProt Q61188); test: Inhibition of EZH2 in mouse B16-F1 migrating cells assessed as fold change in H3K27me3-independent regulated Isg20-mRNA expression at 3 uM measured by ChIP-seq analysis relative to control cells
[21] = target: Histone-lysine N-methyltransferase EZH2 (Mus musculus) (UniProt Q61188); test: Inhibition of EZH2 in mouse B16-F1 migrating cells assessed as fold change in H3K27me3-buffered regulated L3mbtl3-mRNA expression at 3 uM measured by ChIP-seq analysis relative to control cells
[22] = target: Histone-lysine N-methyltransferase EZH2 (Mus musculus) (UniProt Q61188); test: Inhibition of EZH2 in mouse B16-F1 migrating cells assessed as fold change in H3K27me3-buffered regulated Lpar6-mRNA expression at 3 uM measured by ChIP-seq analysis relative to control cells
[23] = target: Histone-lysine N-methyltransferase EZH2 (Mus musculus) (UniProt Q61188); test: Inhibition of EZH2 in mouse B16-F1 migrating cells assessed as fold change in H3K27me3-buffered regulated Crem-mRNA expression at 3 uM measured by ChIP-seq analysis relative to control cells
[24] = target: Histone-lysine N-methyltransferase EZH2 (Mus musculus) (UniProt Q61188); test: Inhibition of EZH2 in mouse B16-F1 migrating cells assessed as fold change in H3K27me3-buffered regulated Bach2-mRNA expression at 3 uM measured by ChIP-seq analysis relative to control cells
[25] = target: Histone-lysine N-methyltransferase EZH2 (Mus musculus) (UniProt Q61188); test: Inhibition of EZH2 in mouse B16-F1 migrating cells assessed as fold change in H3K27me3-buffered regulated Ptch1-mRNA expression at 3 uM measured by ChIP-seq analysis relative to control cells
[26] = target: Histone-lysine N-methyltransferase EZH2 (Mus musculus) (UniProt Q61188); test: Inhibition of EZH2 in mouse B16-F1 migrating cells assessed as fold change in H3K27me3-dependent regulated Fos-mRNA expression at 3 uM measured by ChIP-seq analysis relative to control cells
[27] = target: Histone-lysine N-methyltransferase EZH2 (Mus musculus) (UniProt Q61188); test: Inhibition of EZH2 in mouse B16-F1 migrating cells assessed as fold change in H3K27me3-independent regulated Cyr61-mRNA expression at 3 uM measured by ChIP-seq analysis relative to control cells
[28] = target: Histone-lysine N-methyltransferase EZH2 (Mus musculus) (UniProt Q61188); test: Inhibition of EZH2 in mouse B16-F1 migrating cells assessed as fold change in H3K27me3-buffered regulated Csrp2-mRNA expression at 3 uM measured by ChIP-seq analysis relative to control cells
[29] = target: Histone-lysine N-methyltransferase EZH2 (Mus musculus) (UniProt Q61188); test: Inhibition of EZH2 in mouse B16-F1 migrating cells assessed as fold change in H3K27me3-independent regulated Atad2-mRNA expression at 3 uM measured by ChIP-seq analysis relative to control cells
[30] = target: Histone-lysine N-methyltransferase EZH2 (Mus musculus) (UniProt Q61188); test: Inhibition of EZH2 in mouse B16-F1 migrating cells assessed as fold change in H3K27me3-buffered regulated Zfp692-mRNA expression at 3 uM measured by ChIP-seq analysis relative to control cells

Structure (SMILES): OC[C@H]1O[C@@H](n2cnc3cc(Cl)c(Cl)cc32)[C@H](O)[C@@H]1O
- log2FC [1]: 0.6
- log2FC [2]: -0.92
- log2FC [3]: 1.14
- log2FC [4]: -0.42
- log2FC [5]: 0.42
- log2FC [6]: 0.5
- log2FC [7]: 0.43
- log2FC [8]: 0.5
- log2FC [9]: -0.72
- log2FC [10]: -0.55
- log2FC [11]: 0.49
- log2FC [12]: -0.61
- log2FC [13]: -0.57
- log2FC [14]: 0.56

Structure (SMILES): CCCc1cc(C)[nH]c(=O)c1CNC(=O)c1cc(-c2ccnc(N3CCN(C)CC3)c2)cc2c1cnn2C(C)C
- log2FC [15]: -0.53
- log2FC [16]: -0.52
- log2FC [17]: -0.42
- log2FC [18]: -0.76
- log2FC [19]: -1.11
- log2FC [20]: 0.96
- log2FC [21]: -0.4
- log2FC [22]: -0.5
- log2FC [23]: 0.55
- log2FC [24]: 0.62
- log2FC [25]: -0.48
- log2FC [26]: 0.19
- log2FC [27]: 0.38
- log2FC [28]: 0.38
- log2FC [29]: -0.48
- log2FC [30]: -0.47
